# Reference: patent EP4786483A1 (priority 2023, dated 2025)
# Assay: general procedure: solution-phase peptide synthesis; HATU/DIEA; DCC/DMAP; TCFH/NMI
# Details: late stage modification step
row,Substance,step yield
1,"(R)-1-(3-aminophenyl)propan-2-yl (2R,3R)-3-((S)-1-((3R,4S,5S)-4-((S)-2-((S)-2-(dimethylamino)-3-methylbutanamido)-N,3-dimethylbutanamido)-3-methoxy-5-methylheptanoyl)pyrrolidin-2-yl)-3-methoxy-2-methylpropanoate",52%
2,"(S)-1-(3-aminophenyl)-3-cyanopropan-2-yl (2R,3R)-3-((S)-1-((3R,4S,5S)-4-((S)-2-((S)-2-(dimethylamino)-3-methylbutanamido)-N,3-dimethylbutanamido)-3-methoxy-5-methylheptanoyl)pyrrolidin-2-yl)-3-methoxy-2-methylpropanoate",52%
3,"(S)-1-(3-aminophenyl)propan-2-yl (2R,3R)-3-((S)-1-((3R,4S,5S)-4-((S)-2-((S)-2-(dimethylamino)-3-methylbutanamido)-N,3-dimethylbutanamido)-3-methoxy-5-methylheptanoyl)pyrrolidin-2-yl)-3-methoxy-2-methylpropanoate",52%
4,"(S)-N-((3R,4S,5S)-1-((S)-2-((1R,2R)-3-((3-aminophenethyl)(cyanomethyl)amino)-1-methoxy-2-methyl-3-oxopropyl)pyrrolidin-1-yl)-3-methoxy-5-methyl-1-oxoheptan-4-yl)-2-((S)-2-(dimethylamino)-3-methylbutanamido)-N,3-dimethylbutanamide",85.76%
5,"(S)-N-((3R,4S,5S)-1-((S)-2-((1R,2R)-3-((3-aminophenethyl)(methoxy)amino)-1-methoxy-2-methyl-3-oxopropyl)pyrrolidin-1-yl)-3-methoxy-5-methyl-1-oxoheptan-4-yl)-2-((S)-2-(dimethylamino)-3-methylbutanamido)-N,3-dimethylbutanamide",26.00%
6,"(S)-N-((3R,4S,5S)-1-((S)-2-((1R,2R)-3-((3-aminophenethyl)(prop-2-yn-1-yl)amino)-1-methoxy-2-methyl-3-oxopropyl)pyrrolidin-1-yl)-3-methoxy-5-methyl-1-oxoheptan-4-yl)-2-((S)-2-(dimethylamino)-3-methylbutanamido)-N,3-dimethylbutanamide",11.52%
7,"(S)-N-((3R,4S,5S)-1-((S)-2-((1R,2R)-3-(((S)-1-(3-aminophenyl)-3-chloropropan-2-yl)amino)-1-methoxy-2-methyl-3-oxopropyl)pyrrolidin-1-yl)-3-methoxy-5-methyl-1-oxoheptan-4-yl)-2-((S)-2-(dimethylamino)-3-methylbutanamido)-N,3-dimethylbutanamide",18.19%
8,"(S)-N-((3R,4S,5S)-1-((S)-2-((1R,2R)-3-(((S)-1-(3-aminophenyl)-but-3-yn-2-yl)amino)-1-methoxy-2-methyl-3-oxopropyl)pyrrolidin-1-yl)-3-methoxy-5-methyl-1-oxoheptan-4-yl)-2-((S)-2-(dimethylamino)-3-methylbutanamido)-N,3-dimethylbutanamide",16.01%
9,"(S)-N-((3R,4S,5S)-1-((S)-2-((1R,2R)-3-((R)-2-(3-aminophenyl)-1,1-dioxidothiomorpholino)-1-methoxy-2-methyl-3-oxopropyl)pyrrolidin-1-yl)-3-methoxy-5-methyl-1-oxoheptan-4-yl)-2-((S)-2-(dimethylamino)-3-methylbutanamido)-N,3-dimethylbutanamide",60.31%
10,"(S)-N-((3R,4S,5S)-1-((S)-2-((1R,2R)-3-((R)-2-(3-aminophenyl)thiomorpholino)-1-methoxy-2-methyl-3-oxopropyl)pyrrolidin-1-yl)-3-methoxy-5-methyl-1-oxoheptan-4-yl)-2-((S)-2-(dimethylamino)-3-methylbutanamido)-N,3-dimethylbutanamide",50.55%
11,"(S)-N-((3R,4S,5S)-1-((S)-2-((1R,2R)-3-((S)-2-(3-aminophenyl)-1,1-dioxidothiomorpholino)-1-methoxy-2-methyl-3-oxopropyl)pyrrolidin-1-yl)-3-methoxy-5-methyl-1-oxoheptan-4-yl)-2-((S)-2-(dimethylamino)-3-methylbutanamido)-N,3-dimethylbutanamide",60.31%
12,"(S)-N-((3R,4S,5S)-1-((S)-2-((1R,2R)-3-(allyl(3-aminophenethyl)amino)-1-methoxy-2-methyl-3-oxopropyl)pyrrolidin-1-yl)-3-methoxy-5-methyl-1-oxoheptan-4-yl)-2-((S)-2-(dimethylamino)-3-methylbutanamido)-N,3-dimethylbutanamide",14.44%
13,"(S)-N-((3R,4S,55)-1-((S)-2-((1R,2R)-3-((R)-2-(3-aminophenyl)morpholino)-1-methoxy-2-methyl-3-oxopropyl)pyrrolidin-1-yl)-3-methoxy-5-methyl-1-oxoheptan-4-yl)-2-((S)-2-(dimethylamino)-3-methylbutanamido)-N,3-dimethylbutanamide",75.07%
14,"(S)-N-((3R,4S,55)-1-((S)-2-((1R,2R)-3-((S)-2-(3-aminophenyl)thiomorpholino)-1-methoxy-2-methyl-3-oxopropyl)pyrrolidin-1-yl)-3-methoxy-5-methyl-1-oxoheptan-4-yl)-2-((S)-2-(dimethylamino)-3-methylbutanamido)-N,3-dimethylbutanamide",52.75%
15,"(S)-N-((3R,4S,SS)-1-((S)-2-((1R,2R)-3-((3-aminophenethyl)(hydroxy)amino)-1-methoxy-2-methyl-3-oxopropyl)pyrrolidin-1-yl)-3-methoxy-5-methyl-1-oxoheptan-4-yl)-2-((S)-2-(dimethylamino)-3-methylbutanamido)-N,3-dimethylbutanamide",5.83%
16,"(S)-N-((3R,4S,SS)-1-((S)-2-((1R,2R)-3-((S)-2-(3-aminophenyl)morpholino)-1-methoxy-2-methyl-3-oxopropyl)pyrrolidin-1-yl)-3-methoxy-5-methyl-1-oxoheptan-4-yl)-2-((S)-2-(dimethylamino)-3-methylbutanamido)-N,3-dimethylbutanamide",90.12%
